From the supplement of paper PMC4604168 (melanoma cell lines)
This is one part of the list. Single values are uncertain, as repeats are few or missing.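 Imaging used 1,536-well plates; nuclei positive for cleaved PARP by antibody were divided by total DNA-stained nuclei to yield the apoptosis fraction. Doses for screening kept most cells viable, and cell lines differ markedly in resting and induced cleaved-PARP levels.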

Test system: IST-MEL1
Assay: cleaved PARP positive nuclei fraction relative to DMSO control; melanoma cells; higher = more apoptosis
Settings: library dose: low library concentration; 72 h

SMILES	cleaved PARP positive nuclei fraction [%]
C[C@]1(O)C[C@@H](c2nc(-c3ccc4ccc(-c5ccccc5)nc4c3)c3c(N)nccn32)C1 + O=C1NC(=O)/C(=C/c2ccc(-c3ccc(F)cc3O)o2)S1 [AS252424] (first compound 0.4 µM, partner dose 1 µM)	118
CC1(C)CCC(c2ccc(Cl)cc2)=C(CN2CCN(c3ccc(C(=O)NS(=O)(=O)c4ccc(N[C@H](CCN5CCOCC5)CSc5ccccc5)c(S(=O)(=O)C(F)(F)F)c4)cc3)CC2)C1 + O=C(Nc1cccc(Cl)c1)Nc1ncc(CCNc2ncnc3ccsc23)s1 [SNS314] (first compound 0.4 µM, partner dose 0.0008 µM)	134
C[C@]1(O)C[C@@H](c2nc(-c3ccc4ccc(-c5ccccc5)nc4c3)c3c(N)nccn32)C1 + O=C(Nc1ccccc1)c1cc([N+](=O)[O-])ccc1Cl [GW9662] (first compound 0.4 µM, partner dose 2 µM)	84.9
NC1(c2ccc(-c3nc4ccn5c(=O)[nH]nc5c4cc3-c3ccccc3)cc2)CCC1 + Cc1cc(N2CCOCC2)cc2[nH]c(-c3c(NC[C@@H](O)c4cccc(Cl)c4)cc[nH]c3=O)nc12 [BMS536924] (first compound 0.4 µM, partner dose 0.2 µM)	105
CCN(CC)CCNC(=O)c1c(C)[nH]c(/C=C2\C(=O)Nc3ccc(F)cc32)c1C [sunitinib] + O=c1cc(-c2cccc3c2Sc2ccccc2S3)oc(N2CCOCC2)c1 [KU55933] (first compound 0.4 µM, partner dose 1 µM)	140
CS(=O)(=O)c1ccc(C(=O)Nc2ccc(Cl)c(-c3ccccn3)c2)c(Cl)c1 [vismodegib] + CN(NC(=O)CC(=O)NN(C)C(=S)c1ccccc1)C(=S)c1ccccc1 [STA4783] (first compound 1 µM, partner dose 0.006 µM)	187
Cn1cnc2c(F)c(Nc3ccc(Br)cc3Cl)c(C(=O)NOCCO)cc21 [selumetinib] + C=CCNC1=C2C[C@@H](C)C[C@H](OC)[C@H](O)[C@@H](C)/C=C(\C)[C@H](OC(N)=O)[C@@H](OC)/C=C\C=C(/C)C(=O)NC(=CC1=O)C2=O [Tanespimycin] (first compound 0.015 µM, partner dose 0.002 µM)	72.6
Cn1cnc2c(F)c(Nc3ccc(Br)cc3Cl)c(C(=O)NOCCO)cc21 [selumetinib] + O=S(=O)(c1ccccc1)N(CC(F)(F)F)c1ccc(C(O)(C(F)(F)F)C(F)(F)F)cc1 [T0901317] (first compound 0.015 µM, partner dose 1.4 µM)	211
NC1(c2ccc(-c3nc4ccn5c(=O)[nH]nc5c4cc3-c3ccccc3)cc2)CCC1 + O=C(O)C(=O)Nc1sc2c(c1C(=O)O)CCNC2 [TCS401] (first compound 0.4 µM, partner dose 1.66667 µM)	45.3
CC1(C)CCC(c2ccc(Cl)cc2)=C(CN2CCN(c3ccc(C(=O)NS(=O)(=O)c4ccc(N[C@H](CCN5CCOCC5)CSc5ccccc5)c(S(=O)(=O)C(F)(F)F)c4)cc3)CC2)C1 + Nc1nc(F)nc2c1ncn2[C@@H]1O[C@H](CO)[C@@H](O)[C@@H]1O [fludarabine] (first compound 0.4 µM, partner dose 0.2 µM)	83.3
Cn1sc(=O)n(Cc2ccccc2)c1=O + C=CCNC1=C2C[C@@H](C)C[C@H](OC)[C@H](O)[C@@H](C)/C=C(\C)[C@H](OC(N)=O)[C@@H](OC)/C=C\C=C(/C)C(=O)NC(=CC1=O)C2=O [Tanespimycin] (first compound 0.4 µM, partner dose 0.002 µM)	127
Cn1cnc2c(F)c(Nc3ccc(Br)cc3Cl)c(C(=O)NOCCO)cc21 [selumetinib] + COc1ccc2c(c1)CCC1C2CCC2(C)C(NCCCCCCN3C(=O)C=CC3=O)CCC12 [U73122] (first compound 0.015 µM, partner dose 0.4 µM)	330
CCCCCCCCc1ccc(CCC(N)(CO)CO)cc1 [fingolimod] + CC(C)(C)c1cnc(CSc2cnc(NC(=O)C3CCNCC3)s2)o1 [SNS-032] (first compound 2 µM, partner dose 0.01 µM)	48
NC(=O)c1ccc(N(C(N)=O)c2c(F)cccc2F)nc1-c1ccc(F)cc1F + COCC[n+]1c2c(n(Cc3cnccn3)c1C)C(=O)c1ccccc1C2=O [YM155] (first compound 0.4 µM, partner dose 0.0004 µM)	75
NC1(c2ccc(-c3nc4ccn5c(=O)[nH]nc5c4cc3-c3ccccc3)cc2)CCC1 + CO[C@@H]1[C@H](N(C)C(=O)c2ccccc2)C[C@H]2O[C@]1(C)n1c3ccccc3c3c4c(c5c6ccccc6n2c5c31)C(=O)NC4 [Midostaurin] (first compound 0.4 µM, partner dose 0.08 µM)	172
CC1(C)CCC(c2ccc(Cl)cc2)=C(CN2CCN(c3ccc(C(=O)NS(=O)(=O)c4ccc(N[C@H](CCN5CCOCC5)CSc5ccccc5)c(S(=O)(=O)C(F)(F)F)c4)cc3)CC2)C1 + Cn1nnc2c(C(N)=O)ncn2c1=O [temozolomide] (first compound 0.4 µM, partner dose 2 µM)	120
CN(c1ncccc1CNc1nc(Nc2ccc3c(c2)CC(=O)N3)ncc1C(F)(F)F)S(C)(=O)=O + CO[C@@H]1[C@H](N(C)C(=O)c2ccccc2)C[C@H]2O[C@]1(C)n1c3ccccc3c3c4c(c5c6ccccc6n2c5c31)C(=O)NC4 [Midostaurin] (first compound 0.08 µM, partner dose 0.08 µM)	94
Cn1sc(=O)n(Cc2ccccc2)c1=O + c1cc(-c2cnn3cc(-c4ccc(OCCN5CCCCC5)cc4)cnc23)ccn1 [Dorsomorphin] (first compound 0.4 µM, partner dose 0.4 µM)	58.3
CC(=O)O[C@@]12CO[C@@H]1C[C@H](O)[C@@]1(C)C(=O)[C@H](O)C3=C(C)[C@@H](OC(=O)[C@H](O)[C@@H](NC(=O)OC(C)(C)C)c4ccccc4)C[C@@](O)([C@@H](OC(=O)c4ccccc4)[C@H]21)C3(C)C [Docetaxel] + N#Cc1c(O)c2c(-c3ccc(-c4ccccc4O)cc3)csc2[nH]c1=O [A769662] (first compound 0.0001 µM, partner dose 2 µM)	154
Cn1cnc2c(F)c(Nc3ccc(Br)cc3Cl)c(C(=O)NOCCO)cc21 [selumetinib] + OCCn1cc(-c2cnc3nnn(Cc4ccc5ncccc5c4)c3n2)cn1 [PF04217903] (first compound 0.015 µM, partner dose 1 µM)	62.4
Cn1cnc2c(F)c(Nc3ccc(Br)cc3Cl)c(C(=O)NOCCO)cc21 [selumetinib] + Oc1cc(-c2nc(-c3ccccc3)[nH]c2-c2ccncc2)ccc1Cl [L779450] (first compound 0.015 µM, partner dose 0.2 µM)	173
Cn1sc(=O)n(Cc2ccccc2)c1=O + CCCCCCCCCCCC1=C(O)C(=O)C=C(O)C1=O [Embelin] (first compound 0.4 µM, partner dose 1.2 µM)	140
CCN(CC)CCNC(=O)c1c(C)[nH]c(/C=C2\C(=O)Nc3ccc(F)cc32)c1C [sunitinib] + CCc1ccc(CCOc2ccc(CC3SC(=O)NC3=O)cc2)nc1 [pioglitazone] (first compound 0.4 µM, partner dose 2 µM)	55

Given with each value named: part of the list above
Cn1cnc2c(F)c(Nc3ccc(Br)cc3Cl)c(C(=O)NOCCO)cc21 [selumetinib] + Oc1cc(-c2nc(-c3ccccc3)[nH]c2-c2ccncc2)ccc1Cl [L779450] (first compound 0.015 µM, partner dose 0.2 µM)
  cleaved PARP positive nuclei fraction [%]: 173
Cn1sc(=O)n(Cc2ccccc2)c1=O + CCCCCCCCCCCC1=C(O)C(=O)C=C(O)C1=O [Embelin] (first compound 0.4 µM, partner dose 1.2 µM)
  cleaved PARP positive nuclei fraction [%]: 140
